Experimental data reported in patent US20060240417.
For part of these data: The comparison behind a weaker result is the experiment's own reference, which may not be listed here. For part of these data: Tags and fusion partners may be left off the protein sequences shown.

How the values were obtained:
Experiment in all cases: activity in cells
p53 = p53 (UniProt P04637); settings: luciferase reporter in SAOS-2; low augmentation; protein in cells; only the site is given
p73alpha = target: T1, p73alpha (UniProt O15350); settings: luciferase reporter in SAOS-2; notably augmented; protein in cells; protein details: HA tag; only the site is given
T1 sequence (looked up, limits assumed): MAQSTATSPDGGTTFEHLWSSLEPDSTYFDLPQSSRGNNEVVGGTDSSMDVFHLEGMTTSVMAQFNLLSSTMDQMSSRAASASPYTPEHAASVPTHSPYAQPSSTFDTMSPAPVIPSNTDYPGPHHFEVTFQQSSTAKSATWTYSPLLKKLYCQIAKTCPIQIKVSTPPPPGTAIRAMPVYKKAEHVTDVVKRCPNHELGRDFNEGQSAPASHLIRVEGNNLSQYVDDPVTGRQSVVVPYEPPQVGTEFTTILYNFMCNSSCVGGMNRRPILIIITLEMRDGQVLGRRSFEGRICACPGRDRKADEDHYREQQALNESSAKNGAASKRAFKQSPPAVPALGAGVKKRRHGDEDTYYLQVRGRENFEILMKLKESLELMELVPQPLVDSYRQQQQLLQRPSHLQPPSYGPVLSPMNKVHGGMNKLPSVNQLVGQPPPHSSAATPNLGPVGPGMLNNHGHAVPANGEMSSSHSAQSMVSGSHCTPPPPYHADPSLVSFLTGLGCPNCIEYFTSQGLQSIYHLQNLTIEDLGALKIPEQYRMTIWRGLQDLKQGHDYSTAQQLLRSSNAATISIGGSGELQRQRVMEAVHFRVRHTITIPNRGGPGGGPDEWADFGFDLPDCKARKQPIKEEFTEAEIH

p73beta = test system: T2, p73beta; settings: luciferase reporter in SAOS-2; notably augmented; protein in cells; protein details: HA tag; only the site is given
T2 sequence (looked up, limits assumed): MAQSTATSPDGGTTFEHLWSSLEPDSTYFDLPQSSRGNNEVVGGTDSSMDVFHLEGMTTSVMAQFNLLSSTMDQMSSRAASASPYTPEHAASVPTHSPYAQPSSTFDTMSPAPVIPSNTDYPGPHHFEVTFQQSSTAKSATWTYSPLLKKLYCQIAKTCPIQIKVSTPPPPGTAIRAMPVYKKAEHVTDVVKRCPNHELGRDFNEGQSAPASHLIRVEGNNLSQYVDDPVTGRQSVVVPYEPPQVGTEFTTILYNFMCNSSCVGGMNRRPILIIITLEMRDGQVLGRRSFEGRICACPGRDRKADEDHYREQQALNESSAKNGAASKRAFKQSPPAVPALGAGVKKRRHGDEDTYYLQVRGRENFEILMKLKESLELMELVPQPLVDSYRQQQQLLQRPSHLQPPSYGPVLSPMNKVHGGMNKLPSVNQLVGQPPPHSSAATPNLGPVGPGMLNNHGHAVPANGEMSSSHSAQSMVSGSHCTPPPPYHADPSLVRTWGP

GGGCAAGCTGAGGCCTGCCC (double strand) [deltaNp73P(-76/-57) p73-binding element]
activity on this sequence (p53): less active
activity on this sequence (p73alpha): active
activity on this sequence (p73beta): active
